Reference: PubChem BioAssay AID651640 (Broad Institute, 2012)
The whole screen tested about 350,000 compounds, of which about 6,000 (1.7%) were called active. The shares of active, inactive and inconclusive entries below differ from those in the screen. Cut-off read from the data, not from the text of the source: active = CPE inhibition above about 20% (passing the limit was not always enough); inconclusive = no clear call, values can overlap the other calls; tested in BHK-21 cells.

Test: protection of cells from dengue 2 killing – plate reader, single concentration, primary screen (AID 651640);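 note: 0% = median of neutral control wells and 100% = median of positive control wells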
Conditions: DENV2-infected cells, cytopathic effect rescue, at 9.99 µM, stronger effect = higher value
In the case of `Cc1ccc(C(=O)OCC(=O)Nc2cccc(Cl)c2C)c(O)c1`, the CPE inhibition is reported as inactive: 17.9%. With `O=C(CN1C(=O)NC2(CCCC2)C1=O)OCc1ccc(F)cc1` the CPE inhibition was inconclusive: 57.2%. For `COc1ccc(C(C(=O)NCC2CCCO2)N(C(=O)Cn2nnc3ccccc32)c2ccccc2C(C)=O)cc1OC` (stereo not given), the CPE inhibition was inconclusive: 26.6%. In the case of `COc1ccc2c3c(n(C)c2c1)[C@H](CO)N(Cc1nccs1)CC31CN(C(=O)CN(C)C)C1`, the CPE inhibition is reported as inconclusive: 25.6%. With `COc1ccc(NS(=O)(=O)c2ccc(N3CCCC3)c(N)c2)cc1` the CPE inhibition was inconclusive: 38.1%. For `C[C@@H]1CN([C@@H](C)CO)C(=O)Cc2cc(NC(=O)C3CCCCC3)ccc2O[C@H]1CN(C)S(=O)(=O)c1ccccc1`, the CPE inhibition was inconclusive: 62.2%. For `O=C(O)c1ccc(CN2C[C@@H](CO)O[C@@H](n3cnc4c(NCc5ccco5)ncnc43)C2)cc1`, the CPE inhibition was inconclusive: 27.2%. With `N#C/C(=C\c1ccco1)C(=O)NCC1CCCO1` (stereo not given) the CPE inhibition was inconclusive: 56.1%. For `C[C@]12CC[C@@H]3c4ccc(O)cc4C(=O)C[C@H]3[C@@H]1CC[C@@H]2O`, the CPE inhibition was inconclusive: 20.7%. With `CCCn1c2ccccc2c2cn[nH]c(=O)c21` the CPE inhibition was inactive: 3.61%. In the case of `COc1nc(N/N=C/c2ccc(-c3ccccc3[N+](=O)[O-])o2)nc(N2CCOCC2)n1`, the CPE inhibition is reported as inconclusive: 23.9%. For `Cc1nc2c(C)cccc2cc1C(=O)N/N=C/c1ccc(O)cc1`, the CPE inhibition was inactive: -3.55%. For `CN(CCOc1ccccc1)CC(=O)Nc1ccc(Br)cc1F`, the CPE inhibition was inconclusive: 23.3%. In the case of `COc1ccc(-c2ccc(C#N)c(SCC(=O)NCc3ccco3)n2)cc1OC`, the CPE inhibition is reported as inactive: -3.01%. In the case of `COc1cccc(NC(=O)CN(C)C(=O)c2ccccc2OCc2c(C)noc2C)c1`, the CPE inhibition is reported as inconclusive: 85.7%. With `C[C@H]1CN([C@@H](C)CO)C(=O)c2cccc(NC(=O)C3CCCCC3)c2O[C@@H]1CN(C)Cc1ccccc1` the CPE inhibition was inactive: -10.7%. For `O=C1CC(NS(=O)(=O)c2cccnc2)CN1c1ccccc1` (stereo not given), the CPE inhibition was inconclusive: 29%. For `Cc1nc(N2CCCCC2)sc1C(=O)c1ccc(SCCO)c([N+](=O)[O-])c1`, the CPE inhibition was inactive: 10%. For `CC(=O)N1CCN(c2ccc(S(C)(=O)=O)cc2[N+](=O)[O-])CC1`, the CPE inhibition was inconclusive: 20.9%. For `O=C(NC1CC1)c1sc2ccccc2c1Cl`, the CPE inhibition was inactive: 10.8%. For `COc1ccc(S(=O)(=O)N(C)C[C@@H]2Oc3ccc(N(C)C)cc3CC(=O)N([C@H](C)CO)C[C@H]2C)cc1`, the CPE inhibition was active: 30.2%. For `COc1ccc(S(=O)(=O)Nc2ccc3c(c2)CC(=O)N([C@@H](C)CO)C[C@H](C)[C@H](CN(C)S(=O)(=O)c2c(C)noc2C)O3)cc1`, the CPE inhibition was inactive: -1.46%. With `N#C[C@H]1[C@H](c2ccc(C#Cc3ccc(F)cc3)cc2)[C@@H](CO)N1C(=O)C1CCCC1` the CPE inhibition was active: 22.7%. For `O=C(CSc1ccc(F)cc1)NC(=O)c1ccccc1`, the CPE inhibition was inconclusive: 26.5%. For `Brc1ccc(-c2noc3c2-c2nc(-c4ccccc4)sc2CC3)cc1`, the CPE inhibition was active: 129%. For `Cc1ccc(-n2c(N)cc(=O)nc2SCC(=O)N2CCN(c3ccccc3)CC2)cc1`, the CPE inhibition was inconclusive: 34.8%. With `Cc1ccc(NCC(=O)N/N=C/c2cccc(Br)c2)cc1` the CPE inhibition was active: 30.8%. For `CNC(=O)C[C@@H]1CC[C@H]2[C@H](COc3ccc(NC(=O)Nc4ccccc4F)cc3C(=O)N2C)O1`, the CPE inhibition was inconclusive: 81.5%. In the case of `CC(C)NC(=O)COC(=O)c1cc(=O)[nH]c2ccccc12`, the CPE inhibition is reported as inactive: 0.679%. For `COC1=C(Br)C(=O)c2nc(C)ccc2C1=O`, the CPE inhibition was inactive: -2.53%. For `CNC(=O)c1c(C)nn(-c2ccc(F)c(Cl)c2)c1-c1cc(C)on1`, the CPE inhibition was inconclusive: 21.7%. In the case of `O=C(c1ccccc1F)N1C[C@H]2[C@@H](c3ccccc31)[C@@H](CO)N2C(=O)c1cccnc1`, the CPE inhibition is reported as inconclusive: 22.3%. In the case of `CCC(=O)Nc1ccc2c(c1)C(=O)N(C)[C@H]1CC[C@H](CC(=O)Nc3cccc(OC)c3)O[C@H]1CO2`, the CPE inhibition is reported as inactive: 16.4%. With `CCC1Oc2ccc(C)cc2N(CC(=O)NCCCN2CCOCC2)C1=O` (stereo not given) the CPE inhibition was inconclusive: 37.3%. In the case of `COCC(=O)N1CCC2(CC1)CN(C(=O)Nc1ccccc1F)[C@@H](CO)c1[nH]c3cc(OC)ccc3c12`, the CPE inhibition is reported as inactive: -10.8%. In the case of `COc1ccc(N=Nc2cc(OC)c(N)cc2OC)cc1`, the CPE inhibition is reported as inactive: -1.26%. For `Cn1cnc(S(=O)(=O)N[C@H]2CC[C@@H](CC(=O)Nc3ccccc3)O[C@H]2CO)c1`, the CPE inhibition was inconclusive: 29.8%. With `CN(C)CCCNC(=O)C[C@H]1CC[C@H]2[C@H](COc3ccc(NC(=O)c4cccc(F)c4)cc3C(=O)N2C)O1` the CPE inhibition was inactive: 1.42%. In the case of `CCCN1CCN(C(=O)c2oc3c(Cl)cccc3c2C)CC1`, the CPE inhibition is reported as inconclusive: 48.2%. For `C[C@@H]1CN([C@H](C)CO)C(=O)c2cc(C#CC3CC3)cnc2O[C@@H]1CN(C)Cc1ccccc1C(=O)O`, the CPE inhibition was inconclusive: 21.6%. With `Cc1noc(C)c1NC(=O)N(C)C[C@@H]1Oc2c(NC(=O)c3cnccn3)cccc2C(=O)N([C@H](C)CO)C[C@@H]1C` the CPE inhibition was inactive: 0.537%. For `Oc1ccccc1N=N/C(=N/Nc1ccccc1O)c1ccccc1`, the CPE inhibition was inconclusive: 51.7%. With `CCc1csc(N2[C@H](C#N)[C@H](c3ccccc3C3=CCCC3)[C@H]2CO)n1` the CPE inhibition was inconclusive: 26%. In the case of `CN1CCCCC(NC(=O)c2ccccc2)C1=O` (stereo not given), the CPE inhibition is reported as inconclusive: 59.1%. With `COc1ccc(CN2CCC2(C)C(=O)NCCNC(C)=O)c2ccccc12` (stereo not given) the CPE inhibition was inconclusive: 27.2%. For `OC[C@H]1[C@@H](c2ccc(-c3cncnc3)cc2)[C@@H]2CN(CC3CCOCC3)CCCCN12`, the CPE inhibition was inactive: -9.48%. For `Cc1noc(C)c1-c1ccc(C(=O)NCCC(F)(F)F)c2occc12`, the CPE inhibition was inconclusive: 20.1%. For `CC(C)CN(C[C@H]1N[C@H](CO)[C@@H]1c1ccccc1)C(=O)C1CCCCC1`, the CPE inhibition was inactive: -4.71%. For `CCCC#Cc1ccc([C@@H]2[C@@H](CO)N(C(=O)C3CCOCC3)[C@H]2C#N)cc1`, the CPE inhibition was inconclusive: 50.8%. For `Cn1ncc(Cl)c1C(=O)N1CCN(S(=O)(=O)c2ccc(F)cc2)CC1`, the CPE inhibition was inconclusive: 54.7%.
